For this assay, the target named is FLAG-RXR. Description: co-IP; HEK293 cells transfected with wild-type or p.H229Q HA-VDR and the FLAG-tagged partner plasmid; extracts immunoprecipitated with anti-FLAG; Western blot with anti-HA and anti-FLAG.

This note sets out measurements from article PMC4589239.

No constants are given. Whether binding was seen depends on the method and setting. In cells and extracts the contact can be indirect. A result given as binding can be weak or reduced; the word gives no strength. Sequences can lack the tags named with a protein.

B1: wild-type HA-VDR (vitamin D receptor) (receptor, UniProt P11473-1 1-427)
chain: MEAMAASTSLPDPGDFDRNVPRICGVCGDRATGFHFNAMTCEGCKGFFRRSMKRKALFTCPFNGDCRITKDNRRHCQACRLKRCVDIGMMKEFILTDEEVQRKREMILKRKEEEALKDSLRPKLSEEQQRIIAILLDAHHKTYDPTYSDFCQFRPPVRVNDGGGSHPSRPNSRHTPSFSGDSSSSCSDHCITSSDMMDSSSFSNLDLSEEDSDDPSVTLELSQLSMLPHLADLVSYSIQKVIGFAKMIPGFRDLTSEDQIVLLKSSAIEVIMLRSNESFTMDDMSWTCGNQDYKYRVSDVTKAGHSLELIEPLIKFQVGLKKLNLHEEEHVLLMAICIVSPDRPGVQDAALIEAIQDRLSNTLQTYIRCRHPPPGSHLLYAKMIQKLADLRSLNEEHSKQYRCLSFQPECSMKLTPLVLEVFGNEIS
As to B1, the binding entry is “binds”.
